The campaign covered roughly 360,000 compounds. About 7,500 (2.1%) were called active. Inconclusive results, whose numbers are uncertain, are shown with a selection of clear calls. Calls come from the whole dose curve; as a rule, active = well fitted inhibition curve with a large enough effect; inconclusive = small, poorly fitted or top-dose-only effect, or effect the other way; inactive = flat fitted curve, though single readings scatter. Potencies of inconclusive entries are doubtful fits and often do not repeat.
Assay: Nrf2 qHTS screen for inhibitors; note: nearly all actives have a fitted effect of over 60% in size
Conditions: A549 ARE-Fluc reporter, luciferase luminescence, 18-24 h; series mostly up to 46 µM
Procedure, shortened: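 A549 ARE_Fluc cells (5000/well, 5% FBS OPTI-MEM) pre-incubated 2 h, then treated with compounds 18-24 h at 37C/5% CO2 in concentration-response. CellTiter-Fluor viability read first; BugLite luciferase luminescence after 15 min at room temperature gives Nrf2 activity.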
Potency is the fitted concentration of half-maximal effect.

| SMILES | Potency |
| --- | --- |
| Cc1ccc(CNC(=O)c2ccc3c(c2)c(C)c(C)n3Cc2ccc(Cl)cc2)o1 | inconclusive: 0.206 µM [falling, full curve] |
| COc1ccccc1N(C)S(=O)(=O)c1ccc(C(=O)NC2CCCCC2)cc1 | inactive |
| O=S(=O)(Nc1cccc2cccnc12)c1cccc2cccnc12 | inconclusive: 7.31 µM [falling, partial curve] |
| CC1(C)CC(=O)C2=C(C1)N1C(=C(C#N)C2c2ccc(Cl)cc2)N=C(N)c2ccccc21 (stereo not given) | inconclusive: 29.1 µM [falling, single point] |
| CNCc1ccccc1OCC(=O)Nc1ccccc1 | inconclusive: 23.1 µM [activator, single point] |
| O=C(NCCC1=CCCCC1)C1CCCN(S(=O)(=O)c2cccc3cccnc23)C1 (stereo not given) | inconclusive: 29.1 µM [falling, single point] |
| O=C(CN1CCc2cc3c(cc2C1)OCCCO3)Nc1c(F)cccc1F | inconclusive: 16.4 µM [falling, partial curve] |
| O=C(NC1=NCCS1)c1cccc(Br)c1 | inconclusive: 2.59 µM [activator, partial curve] |
| CC(C(=O)O)c1ccc(N2Cc3ccccc3C2=O)cc1 (stereo not given) | inconclusive: 32.6 µM [falling, single point] |
| Cc1cc(N2CCC(C(=O)Nc3ccc(F)cc3F)CC2)n2nc(C)c(-c3ccc(Cl)cc3)c2n1 | inactive |
| C[C@H](CO)N1C[C@H](C)[C@@H](CN(C)C(=O)Nc2ccccc2)Oc2c(NC(=O)Nc3ccc4c(c3)OCO4)cccc2C1=O | inconclusive: 16.4 µM [activator, partial curve, poor fit] |
| COc1ccc([N+](=O)[O-])cc1N(CC(O)CN1CCCC1)S(=O)(=O)c1ccc(C)cc1 (stereo not given) | inconclusive: 14.6 µM [activator, partial curve, poor fit] |
| O=C(NCCCCc1ccccc1)C1CC(c2cccc([N+](=O)[O-])c2)=NO1 (stereo not given) | inconclusive: 32.6 µM [falling, single point] |
| Cc1ccc(C(C(=O)NC2CCCCC2)N(C(=O)c2csnn2)C2CCCC2)o1 (stereo not given) | inconclusive: 23.1 µM [activator, partial curve, poor fit] |
| O=C(CCC1CCCCC1)NCCS(=O)(=O)N1CCN(c2ccc(F)cc2)CC1 | inconclusive: 18.4 µM [falling, single point] |
| O=S(=O)(Nc1ccc2c(c1)nc1n2CCN(Cc2ccccc2)C1)c1ccccc1 | inconclusive: 5.8 µM [falling, full curve] |
| O=C(O)c1cccc(NC(=O)c2cc(-c3cccc(Cl)c3)nc3ccccc23)c1 | inconclusive: 29.1 µM [activator, single point] |
| COc1cccc(NS(=O)(=O)c2ccc3[nH]cc(C(=O)NC(C)c4ccccc4)c(=O)c3c2)c1 (stereo not given) | inconclusive: 29.1 µM [falling, single point] |
| CCCOc1ccc([C@@H]2C3CN(C(=O)OCC)CC=C3C(C#N)=C(N)C2(C#N)C#N)cc1OC (stereo not given in full) | inconclusive: 29.1 µM [falling, single point] |
| CC1CCc2c(sc(NC(=O)CCc3nc4ccccc4c(=O)[nH]3)c2C#N)C1 (stereo not given) | inconclusive: 16.4 µM [activator, partial curve] |

An excerpt from above in order of molar mass, ascending:

| SMILES | Potency |
| --- | --- |
| O=C(NCCCCc1ccccc1)C1CC(c2cccc([N+](=O)[O-])c2)=NO1 (stereo not given) | inconclusive: 32.6 µM [falling, single point] |
| CCCOc1ccc([C@@H]2C3CN(C(=O)OCC)CC=C3C(C#N)=C(N)C2(C#N)C#N)cc1OC (stereo not given in full) | inconclusive: 29.1 µM [falling, single point] |
| Cc1cc(N2CCC(C(=O)Nc3ccc(F)cc3F)CC2)n2nc(C)c(-c3ccc(Cl)cc3)c2n1 | inactive |

Additional compounds.

| SMILES | Potency |
| --- | --- |
| Cc1cccc(NC(=O)c2cn(-c3ccccc3)nc2-c2ccccc2)c1C | inconclusive: 10.3 µM [falling, single point] |
| Cc1cc(S(=O)(=O)N2CCCOC2CNC(=O)C(=O)NCCCN2CCOCC2)ccc1F (stereo not given) | inactive |
| c1cc2c(cc1C1=Nn3c(nnc3C3CCCCC3)SC1)OCO2 | inconclusive: 29.1 µM [falling, single point] |
| CCOC(=O)c1c(C)oc2nc(C)nc(NCCc3ccc(Cl)cc3)c12 | inactive |
| Cc1ccccc1OCC(=O)NCC(=O)OCc1cccc2ccccc12 | inactive |
| COC(=O)c1cc(CNC(=O)CCCSc2ccccc2)ccc1OC | inconclusive: 29.1 µM [activator, partial curve, poor fit] |
| CC(=C\c1ccccc1)/C=C1/SC(=S)N(CCC(=O)O)C1=O | inconclusive: 10.3 µM [falling, partial curve] |
| CC(C)c1ccc(NC(=O)Cn2nnc(C(=O)NCc3ccc4c(c3)OCO4)c2N)cc1 | inconclusive: 2.59 µM [activator, full curve, poor fit] |
| O=C(O)C1Cc2[nH]cnc2C(c2cccc([N+](=O)[O-])c2)N1 (stereo not given) | inconclusive: 4.11 µM [falling, full curve, poor fit] |
| Cc1ccc(NC(=O)C2=NNC(=O)CC2)cc1S(=O)(=O)Nc1ccc(SC(F)F)cc1 | inconclusive: 25.9 µM [falling, single point] |
| Cc1cc(S(=O)(=O)N2CCOCC2)c(C)s1 | inconclusive: 20.6 µM [falling, single point] |
| CCSC(=O)N1c2ccc(OC)cc2C=CC1C#N (stereo not given) | inconclusive: 11.6 µM [activator, partial curve] |
| CN(C)/C=C/C(=O)c1ccc(Cl)c([N+](=O)[O-])c1 | inactive |
| Cc1cc(N2C(=O)C(O)=C(C(=O)c3cc4ccccc4o3)C2c2cccs2)no1 (stereo not given) | inconclusive: 20.6 µM [falling, single point] |
| Cc1ccc(CNC(=O)C2CC(c3cccc(F)c3)=NO2)cc1 (stereo not given) | inactive |
| O=C(NCc1ccc2c(c1)OCO2)c1cc(F)c(F)cc1Cl | inconclusive: 20.6 µM [activator, single point] |
| COc1ccc(OC)c(-c2cc(C(=O)NCc3cccs3)no2)c1 | inconclusive: 20.6 µM [falling, partial curve, poor fit] |
| COc1cc(C)c(CNc2cc(C)cc(C)c2)cc1C | inconclusive: 6.51 µM [falling, partial curve, poor fit] |
| CC(=O)Nc1cccc(C(=O)OCC(=O)NC(=O)C2CCCCC2)c1 | inactive |
| Cc1ccc2sc(N(CCN(C)C)C(=O)/C=C/c3cccs3)nc2c1C | inconclusive: 6.51 µM [activator, partial curve, poor fit] |

Reference: PubChem BioAssay AID504444 (National Center for Advancing Translational Sciences (NCATS), 2011)
